Experimental data as given in PubChem BioAssay AID2685 (National Center for Advancing Translational Sciences (NCATS), 2010).
This is one part of the list. These are further read-outs of the screen, such as a control signal, another cell line or another target. No call is given for them. The list favours compounds with an active or inconclusive main result. Potencies come from curve fits of mixed quality, noted in brackets.

Assay: qHTS Assay for Lipid Storage Modulators in Drosophila S3 Cells;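 for cell number change: cells counted by Cell Tracker Red CMTPX staining in the red channel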
Conditions: BODIPY lipid droplet fluorescence, 18-24 h; for cell number change: measured here: cell count max response, cells fed with added oleic acid
Procedure, shortened: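 Laser-scanning cytometry quantifies lipid droplet accumulation (500–530 nm total intensity; droplet/cell object ratio) in oleic acid-fed (400 uM added) Drosophila S3 cells treated with a concentration series. 20 uM Triacsin C defined 100% inhibition.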

[1] = measured here: cell number channel AC50, cells fed with added oleic acid
[2] = measured here: lipid fluorescence (Fed channel) AC50, cells fed with added oleic acid

SMILES | cell number change [%] | AC50 [1] | AC50 [2]
Cc1ccccc1/C=N/Nc1nc2ccccc2[nH]1 | -30.8 | 25.9 µM [falling, single point] | 
CCN(C(=O)C1CCCN(c2nc(-c3ccc(OC)cc3)no2)C1)c1ccccc1F (stereo not drawn) | 12.6 |  | 29.1 µM [falling, single point]
COc1ccccc1/C=C(/NC(=O)c1ccccc1)C(=O)NCCCn1ccnc1 | 11 |  | 0.116 µM [rising, full curve, poor fit]
COc1ccc(NS(=O)(=O)c2cccc(NC(=O)NC3CCCCC3)c2)cc1 |  | 0.00461 µM [falling, full curve, poor fit] | 
Cc1cc(-n2ccc(=O)[nH]c2=O)nc(-c2ccccc2)n1 | -20.2 | 0.0731 µM [falling, full curve, poor fit] | 
CC(CN1CCN(C)CC1)OC(=O)c1cccc(Cl)c1 (stereo not drawn) | 24.5 |  | 
CCOC(=O)c1cccc(N2C(=O)C3C(C(=O)NC4CC4)C4(C)C=CC3(O4)C2C(=O)NC(C)(C)C)c1 (stereo not drawn) | 10.6 |  | 23.1 µM [falling, single point]
COc1ccccc1N1CCN(C(=O)c2ccc3[nH]c4c(c3c2)CC(C)CC4)CC1 (stereo not drawn) | -8.41 |  | 
COc1ccc(NCCc2ccccn2)cc1 | -11 |  | 0.13 µM [rising, full curve, poor fit]
O=C(C1CCCC1)N1CCC(CC2CC(c3cccc(Br)c3)=NO2)(C(=O)NCC2CCCCC2)CC1 (stereo not drawn) | 33.3 | 29.1 µM [rising, single point] | 
Cc1cc(OC(C)C(=O)NCc2ccccn2)c2c(C)c(Cc3ccccc3)c(=O)oc2c1 (stereo not drawn) | -21.5 |  | 23.1 µM [falling, single point]
COc1ccccc1-n1c(SCC(=O)NCc2ccc3c(c2)OCO3)nc2cc([N+](=O)[O-])ccc21 | 11.5 |  | 0.517 µM [rising, single point]
C=CCN(c1ccccc1OC)S(=O)(=O)c1cccc(C(=O)OCC(=O)c2c[nH]c3ccccc23)c1 | -26.8 |  | 32.6 µM [falling, single point]
CS(=O)(=O)NCCSCc1ccco1 | -0.419 |  | 
Cc1ccc(NC(=S)NC(=O)C2CCC2)cc1C | -12.4 |  | 16.4 µM [rising, partial curve]
C/C(=N\NC(=O)CC(C)C)c1ccc(Cl)c(Cl)c1 | -56.1 | 20.6 µM [falling, partial curve, poor fit] | 
O=C(Nc1ccncc1)c1cc(-c2ccccn2)nc2ccccc12 | 30.4 | 2.31 µM [rising, partial curve, poor fit] | 2.91 µM [rising, partial curve, poor fit]
O=C(NCc1ccccc1)C1CC(=O)N(C2CCCCCC2)C1 (stereo not drawn) | 31 | 29.1 µM [rising, single point] | 20.6 µM [rising, single point]
C[N+]1(CCCOC(=O)C2(c3ccccc3)CCCC2)CCOCC1 | -19.6 |  | 0.0164 µM [falling, full curve, poor fit]
CN1C[C@@H]2C(c3ccc(Cl)nc3)C3(c4cccnc4)CC2(C3)[C@H]1c1ccccc1 (stereo partly drawn) | 17.3 |  | 0.082 µM [rising, full curve, poor fit]
CCCCOCCCNC(=O)C1CCCCC1 | 5.85 |  | 1.64 µM [falling, full curve, poor fit]

SMILES | cell number change [%] | AC50 [1] | AC50 [2]
O=C(CN(c1ccccc1)S(=O)(=O)c1ccccc1)NCCSCc1ccco1 | 62.6 | 11.6 µM [rising, partial curve] | 4.61 µM [rising, single point]
CC1=NN(C(N)=S)C(=O)C1N=Nc1c(C)cc(C)cc1C (stereo not drawn) | 107 | 0.92 µM [rising, partial curve] | 2.31 µM [rising, partial curve]
N/C(=N\OC(=O)c1ccc([N+](=O)[O-])cc1Cl)c1ccccn1 | -11.5 |  | 
Nc1c(C(=O)NCCN2CCOCC2)c2nc3ccccc3nc2n1-c1ccccc1 | -6.52 |  | 0.92 µM [rising, partial curve]
C=C(C)COc1ccc(-c2nc(N)ncc2-c2ccc(OC)cc2)c(O)c1 | -13 |  | 29.1 µM [falling, single point]
COCCSc1nnc(NS(=O)(=O)Cc2ccccc2)s1 | 3.52 |  | 2.06 µM [falling, partial curve, poor fit]
CC1=C(C#N)C(NC(=O)c2ccc(C)cc2)(C(F)(F)F)C(=O)N1 (stereo not drawn) |  |  | 0.00461 µM [falling, full curve, poor fit]
CC(=O)N1CCN(c2ccc(NC(=S)NC(=O)COc3ccc(C(C)(C)C)cc3)cc2)CC1 | -46.6 | 2.06 µM [falling, partial curve] | 2.06 µM [falling, partial curve]
CCN(Cc1nc(-c2ccc(OC)c(OC)c2)no1)C(=O)c1ccc2c(c1)OCO2 | 4.17 |  | 1.16 µM [falling, single point]
Cc1ccc(CSCC(=O)N(C)CC(=O)Nc2ccc(Br)cc2C)cc1 | -28.8 |  | 14.6 µM [falling, partial curve]
COc1ccc(NC(=O)CN(C)CC(=O)Nc2cccc(C(F)(F)F)c2)cc1 | -14 |  | 
COc1ccc(NC(=O)c2cc(=O)[nH]c(=O)[nH]2)cc1S(=O)(=O)Nc1ccccc1Cl | 31 |  | 
Cc1cc(C)n2nc(SC(C)C(=O)N(C)c3ccccc3)nc2n1 (stereo not drawn) | 14.3 | 6.51 µM [falling, single point] | 
O=c1nc(Nc2cccc(Cl)c2)oc2cc(Cl)oc(=O)c12 | -0.438 |  | 29.1 µM [rising, partial curve]
Cc1ccc(NC(=O)/C(Cl)=C\c2ccccc2)cc1 | 8.52 |  | 7.31 µM [rising, partial curve, poor fit]
COc1ccc(-c2c(C)oc3c(CN4CCCCC4C)c(O)ccc3c2=O)cc1OC (stereo not drawn) | -13.7 |  | 
CC(=O)NCC(c1cccs1)S(=O)(=O)c1ccc(F)cc1 (stereo not drawn) |  |  | 0.103 µM [rising, single point]
Cc1sc2nc(C(C)Sc3n[nH]c(N)n3)[nH]c(=O)c2c1C (stereo not drawn) | 68.5 |  | 
O=C(N/N=C/c1cccc(O)c1)c1csc2ccccc12 | -11 |  | 
C=CCOC(=O)c1c(C)nc2cc3c(cc2c1C)OCO3 | 7.54 |  | 0.00411 µM [rising, full curve, poor fit]
Cc1[nH]c2ccccc2c1SCC(=O)N1CCCc2ccccc21 | -0.735 |  | 

Exported as tab-separated lines: entries from further up
SMILES	cell number change [%]	AC50 [1]	AC50 [2]
O=C(Nc1ccncc1)c1cc(-c2ccccn2)nc2ccccc12	30.4	2.31 µM [rising, partial curve, poor fit]	2.91 µM [rising, partial curve, poor fit]
O=C(NCc1ccccc1)C1CC(=O)N(C2CCCCCC2)C1 (stereo not drawn)	31	29.1 µM [rising, single point]	20.6 µM [rising, single point]

Following part.

SMILES | cell number change [%] | AC50 [1] | AC50 [2]
O=C(O)c1cccc(Nc2nc(N3CCOCC3)nc(N3CCOCC3)n2)c1 | -169 | 29.1 µM [falling, single point] | 29.1 µM [falling, single point]
O=C(c1ccc2c(=O)n(C3CCCC3)c(=S)[nH]c2c1)N1CCCCCC1 | -36.1 | 10.3 µM [falling, partial curve, poor fit] | 18.4 µM [falling, partial curve, poor fit]
Cc1ccc(-c2noc(CCCOc3ccc(Cl)cc3Cl)n2)cc1 |  | 0.00517 µM [falling, full curve, poor fit] | 
O=C(Cn1[nH]c(=O)c2ccccc2c1=O)N1CC=C(c2ccccc2)CC1 | 305 | 20.6 µM [rising, partial curve] | 20.6 µM [rising, partial curve]
CN(C(=O)c1ccc(NC(=O)Cc2cccc(NC(=O)C3CCN(C(=O)C4CCC4)CC3)c2)cc1)C1CCCC1 | 16.3 | 1.03 µM [falling, single point] | 
Cc1ccc(S(=O)(=O)NC(C)(C)C)cc1C(=O)OCC(=O)N1CCCC1=O | 14.4 |  | 1.3 µM [falling, full curve, poor fit]
COc1ccc(CCNCC(=O)Nc2ccc(C(=O)N3CCCCC3)cc2)cc1 | -2.17 |  | 
O=C(Nc1cccc(-c2cnc3ccccc3n2)c1)c1ccc(Cl)cc1 | -33.4 | 0.00461 µM [falling, full curve, poor fit] | 
Cc1cc(C)n(-c2nc(NCC(C)O)c3c4c(sc3n2)CCCC4)n1 (stereo not drawn) | -30.3 | 29.1 µM [falling, single point] | 29.1 µM [falling, single point]
CC/C=C(/NC(C)=O)c1ccccc1 | 8.8 |  | 3.66 µM [rising, single point]
O=C(Cc1ccccc1)NC(c1ccco1)c1c(O)ccc2ccccc12 (stereo not drawn) | -24.1 |  | 14.6 µM [falling, single point]
CS(=O)(=O)N1CCc2cc(-c3csc(NC(=O)Cc4ccccc4)n3)ccc21 | -29.1 |  | 18.4 µM [falling, partial curve, poor fit]
CC(C)(C)C(=O)Nc1ccc(C(=O)COC(=O)C2CC2)cc1 | -8 |  | 
CCCN1CCN(C(=O)Cn2nc(C)n3c(cc4sccc43)c2=O)CC1 | 9.06 |  | 0.0651 µM [rising, partial curve, poor fit]
CCN(CC)C(=O)COc1ccc2c3c(c(=O)oc2c1)CCCC3 | 22.8 |  | 
CCc1ccccc1NC(=O)NC(C)c1ccc2c(c1)OCO2 (stereo not drawn) | 18.9 |  | 20 µM [rising, single point]
CC(=O)OCc1c(C(F)(F)F)nn(C)c1Oc1cccc(C(F)(F)F)c1 | 3.32 |  | 2.06 µM [rising, partial curve, poor fit]
COc1ccc(S(=O)(=O)Nc2c(C)cc(C)cc2C)c2cccnc12 | 16.8 |  | 
NC1=NCC(O)=C1c1nc2ccccc2[nH]1 | 80.2 | 6.51 µM [rising, partial curve, poor fit] | 
